This note sets out measurements from ChEMBL document CHEMBL3868595, “Plazomicin is effective in a non-human primate pneumonic plague model” (Bioorg Med Chem, 2016).

Molecules are shown by their SMILES. This continues a long series; more values of the same kind are listed elsewhere.

Experiment [1] concerns Yersinia pestis. Kind of experiment: Antibacterial activity against Yersinia pestis Colorado 92 infected in African green monkey C2083 model assessed as bacterial burden in lung at 12.5 mg/kg, iv administered within 6 hrs post onset of sustained fever as 30 mins infusion for 5 days (reference value: 7.7 10^8CFU/g). It is filed as functional, CO92.
In experiment [2] the test system is Yersinia pestis. Put plainly: Antibacterial activity against Yersinia pestis Colorado 92 infected in African green monkey B6861 model assessed as bacterial burden in lung at 6.25 mg/kg, iv administered within 6 hrs post onset of sustained fever as 30 mins infusion for 5 days (reference value: 7.7 10^8CFU/g). It is filed as functional, CO92.
The test system of experiment [3] is Yersinia pestis. Put plainly: Antibacterial activity against Yersinia pestis Colorado 92 infected in African green monkey C2149 model assessed as bacterial burden in lung at 6.25 mg/kg, iv administered within 6 hrs post onset of sustained fever as 30 mins infusion for 5 days (reference value: 7.7 10^8CFU/g). It is filed as functional, CO92.
Experiment [4] concerns Yersinia pestis. Put plainly: Antibacterial activity against Yersinia pestis Colorado 92 infected in African green monkey B6960 model assessed as bacterial burden in lung at 6.25 mg/kg, iv administered within 6 hrs post onset of sustained fever as 30 mins infusion for 5 days (reference value: 7.7 10^8CFU/g). It is filed as functional, CO92.
The subject of experiment [5] is Yersinia pestis. Kind of experiment: Antibacterial activity against Yersinia pestis Colorado 92 infected in African green monkey B6469 model assessed as bacterial burden in spleen at 25 mg/kg, iv administered within 6 hrs post onset of sustained fever as 30 mins infusion for 5 days (reference value: 1.6 10^9CFU/g). It is filed as functional, CO92.
Experiment [6] concerns Yersinia pestis. Put plainly: Antibacterial activity against Yersinia pestis Colorado 92 infected in African green monkey B6672 model assessed as bacterial burden in spleen at 12.5 mg/kg, iv administered within 6 hrs post onset of sustained fever as 30 mins infusion for 5 days (reference value: 1.6 10^9CFU/g). It is filed as functional, CO92.
Experiment [7] relates to Yersinia pestis. Kind of experiment: Antibacterial activity against Yersinia pestis Colorado 92 infected in African green monkey B6873 model assessed as bacterial burden in liver at 12.5 mg/kg, iv administered within 6 hrs post onset of sustained fever as 30 mins infusion for 5 days (reference value: 5.2 10^8CFU/g). It is filed as functional, organism-based. Conditions: CO92.

Experiment [8] relates to Yersinia pestis. Kind of experiment: Antibacterial activity against Yersinia pestis Colorado 92 infected in African green monkey B6127 model assessed as bacterial burden in kidney at 25 mg/kg, iv administered within 6 hrs post onset of sustained fever as 30 mins infusion for 10 days (reference value: 7.1 10^7CFU/g). It is filed as functional, organism-based. Particulars: CO92.

Experiment [9] relates to Yersinia pestis. Put plainly: Antibacterial activity against Yersinia pestis Colorado 92 infected in African green monkey B6415 model assessed as bacterial burden in kidney at 25 mg/kg, iv administered within 6 hrs post onset of sustained fever as 30 mins infusion for 5 days (reference value: 7.1 10^7CFU/g). It is filed as functional, CO92.
For experiment [10], the system named is Yersinia pestis. Kind of experiment: Antibacterial activity against Yersinia pestis Colorado 92 infected in African green monkey B6415 model assessed as bacterial burden in tracheobronchial lymph nodes at 25 mg/kg, iv administered within 6 hrs post onset of sustained fever as 30 mins infusion for 5 days (reference value: 7.7 10^9CFU/g). It is filed as functional, CO92, Lymph node.

In experiment [11] the test system is Yersinia pestis. Put plainly: Antibacterial activity against Yersinia pestis Colorado 92 infected in African green monkey B6988 model assessed as bacterial burden in tracheobronchial lymph nodes at 6.25 mg/kg, iv administered within 6 hrs post onset of sustained fever as 30 mins infusion for 5 days (reference value: 7.7 10^9CFU/g). It is filed as functional, CO92, Lymph node.

In experiment [12] the test system is Yersinia pestis. Kind of experiment: Antibacterial activity against Yersinia pestis Colorado 92 infected in African green monkey B6872 model assessed as bacterial burden in heart at 25 mg/kg, iv administered within 6 hrs post onset of sustained fever as 30 mins infusion for 5 days (reference value: 2.6 10^7CFU/g). It is filed as functional, organism-based. Conditions: CO92.

Experiment [13] has as its system Yersinia pestis. Kind of experiment: Antibacterial activity against Yersinia pestis Colorado 92 infected in African green monkey B6127 model assessed as bacterial burden in heart at 25 mg/kg, iv administered within 6 hrs post onset of sustained fever as 30 mins infusion for 10 days (reference value: 2.6 10^7CFU/g). It is filed as functional, CO92.
Experiment [14] concerns Yersinia pestis. Kind of experiment: Antibacterial activity against Yersinia pestis Colorado 92 infected in African green monkey B6415 model assessed as bacterial burden in heart at 25 mg/kg, iv administered within 6 hrs post onset of sustained fever as 30 mins infusion for 5 days (reference value: 2.6 10^7CFU/g). It is filed as functional, CO92.
The test system of experiment [15] is Yersinia pestis. Put plainly: Antibacterial activity against Yersinia pestis Colorado 92 infected in African green monkey B6783 model assessed as bacterial burden in heart at 12.5 mg/kg, iv administered within 6 hrs post onset of sustained fever as 30 mins infusion for 5 days (reference value: 2.6 10^7CFU/g). It is filed as functional, CO92.
Experiment [16] concerns Yersinia pestis. Put plainly: Antibacterial activity against Yersinia pestis Colorado 92 infected in African green monkey B6672 model assessed as bacterial burden in brain at 12.5 mg/kg, iv administered within 6 hrs post onset of sustained fever as 30 mins infusion for 5 days (reference value: 1.9 10^6CFU/g). It is filed as functional, CO92.
Experiment [17] has as its system Yersinia pestis. Kind of experiment: Antibacterial activity against Yersinia pestis Colorado 92 infected in African green monkey B6960 model assessed as bacterial burden in brain at 6.25 mg/kg, iv administered within 6 hrs post onset of sustained fever as 30 mins infusion for 5 days (reference value: 1.9 10^6CFU/g). It is filed as functional, organism-based. Particulars: CO92.

Experiment [18] deals with Yersinia pestis. Kind of experiment: Antibacterial activity against Yersinia pestis Colorado 92 infected in African green monkey B6783 model assessed as bacterial burden in blood at 12.5 mg/kg, iv administered within 6 hrs post onset of sustained fever as 30 mins infusion for 5 days (reference value: 1.2 10^7CFU/ml). It is filed as functional, CO92.

For the compound `CN[C@@H]1[C@@H](O)[C@@H](O[C@@H]2[C@@H](O)[C@H](O[C@H]3OC(CNCCO)=CC[C@H]3N)[C@@H](N)C[C@H]2NC(=O)[C@@H](O)CCN)OC[C@]1(C)O` [PLAZOMICIN], the Activity in [1] is listed as 3.7 ×10⁶ CFU/g; in experiment [2], 1.2 ×10⁸ CFU/g; in experiment [3], 1 ×10⁹ CFU/g; in [4], 3 ×10⁹ CFU/g; in experiment [5] it was 46 CFU/g; in experiment [6] it was 25 CFU/g. In addition, the Activity result in [7] was “Below limit of detection”; in experiment [8], “Below limit of detection”; in [9], 15 CFU/g; in [10], 7.1 ×10⁷ CFU/g; in experiment [11], 6.6 ×10⁶ CFU/g; in experiment [12] it was “Below limit of detection”. Moreover, the Activity was 94 CFU/g in [13]; 62 CFU/g in experiment [14]; 80 CFU/g in [15]; 23 CFU/g in [16]; “Below limit of detection” in experiment [17]; 27 CFU/ml in experiment [18].
